Test results from the supplement of paper PMC10849652.
This is one part of the list.

Protein sequences, listed by entry. Tags and fused reporters are not part of them. Lines headed by an entry give the natural chain unless they say otherwise; changes in a name come on top.
UniProt Q16587: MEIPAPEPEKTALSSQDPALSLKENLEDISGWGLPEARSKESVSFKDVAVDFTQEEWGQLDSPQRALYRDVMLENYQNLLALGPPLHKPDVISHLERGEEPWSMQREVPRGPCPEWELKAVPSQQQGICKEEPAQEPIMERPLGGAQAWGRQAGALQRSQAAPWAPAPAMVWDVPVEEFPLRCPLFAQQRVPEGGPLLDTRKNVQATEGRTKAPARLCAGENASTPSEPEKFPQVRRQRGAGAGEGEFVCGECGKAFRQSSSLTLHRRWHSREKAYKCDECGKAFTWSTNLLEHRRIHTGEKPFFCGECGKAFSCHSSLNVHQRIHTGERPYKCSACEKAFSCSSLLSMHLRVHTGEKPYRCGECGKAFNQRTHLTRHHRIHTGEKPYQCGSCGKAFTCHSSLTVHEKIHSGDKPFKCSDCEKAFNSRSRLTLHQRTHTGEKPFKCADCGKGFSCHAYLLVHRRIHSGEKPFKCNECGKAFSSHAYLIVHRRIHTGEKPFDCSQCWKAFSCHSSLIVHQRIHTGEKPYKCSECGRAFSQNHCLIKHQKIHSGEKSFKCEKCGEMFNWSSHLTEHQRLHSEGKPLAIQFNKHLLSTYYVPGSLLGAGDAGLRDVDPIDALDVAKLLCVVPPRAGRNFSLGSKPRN
UniProt P01023, whole entry, looked up: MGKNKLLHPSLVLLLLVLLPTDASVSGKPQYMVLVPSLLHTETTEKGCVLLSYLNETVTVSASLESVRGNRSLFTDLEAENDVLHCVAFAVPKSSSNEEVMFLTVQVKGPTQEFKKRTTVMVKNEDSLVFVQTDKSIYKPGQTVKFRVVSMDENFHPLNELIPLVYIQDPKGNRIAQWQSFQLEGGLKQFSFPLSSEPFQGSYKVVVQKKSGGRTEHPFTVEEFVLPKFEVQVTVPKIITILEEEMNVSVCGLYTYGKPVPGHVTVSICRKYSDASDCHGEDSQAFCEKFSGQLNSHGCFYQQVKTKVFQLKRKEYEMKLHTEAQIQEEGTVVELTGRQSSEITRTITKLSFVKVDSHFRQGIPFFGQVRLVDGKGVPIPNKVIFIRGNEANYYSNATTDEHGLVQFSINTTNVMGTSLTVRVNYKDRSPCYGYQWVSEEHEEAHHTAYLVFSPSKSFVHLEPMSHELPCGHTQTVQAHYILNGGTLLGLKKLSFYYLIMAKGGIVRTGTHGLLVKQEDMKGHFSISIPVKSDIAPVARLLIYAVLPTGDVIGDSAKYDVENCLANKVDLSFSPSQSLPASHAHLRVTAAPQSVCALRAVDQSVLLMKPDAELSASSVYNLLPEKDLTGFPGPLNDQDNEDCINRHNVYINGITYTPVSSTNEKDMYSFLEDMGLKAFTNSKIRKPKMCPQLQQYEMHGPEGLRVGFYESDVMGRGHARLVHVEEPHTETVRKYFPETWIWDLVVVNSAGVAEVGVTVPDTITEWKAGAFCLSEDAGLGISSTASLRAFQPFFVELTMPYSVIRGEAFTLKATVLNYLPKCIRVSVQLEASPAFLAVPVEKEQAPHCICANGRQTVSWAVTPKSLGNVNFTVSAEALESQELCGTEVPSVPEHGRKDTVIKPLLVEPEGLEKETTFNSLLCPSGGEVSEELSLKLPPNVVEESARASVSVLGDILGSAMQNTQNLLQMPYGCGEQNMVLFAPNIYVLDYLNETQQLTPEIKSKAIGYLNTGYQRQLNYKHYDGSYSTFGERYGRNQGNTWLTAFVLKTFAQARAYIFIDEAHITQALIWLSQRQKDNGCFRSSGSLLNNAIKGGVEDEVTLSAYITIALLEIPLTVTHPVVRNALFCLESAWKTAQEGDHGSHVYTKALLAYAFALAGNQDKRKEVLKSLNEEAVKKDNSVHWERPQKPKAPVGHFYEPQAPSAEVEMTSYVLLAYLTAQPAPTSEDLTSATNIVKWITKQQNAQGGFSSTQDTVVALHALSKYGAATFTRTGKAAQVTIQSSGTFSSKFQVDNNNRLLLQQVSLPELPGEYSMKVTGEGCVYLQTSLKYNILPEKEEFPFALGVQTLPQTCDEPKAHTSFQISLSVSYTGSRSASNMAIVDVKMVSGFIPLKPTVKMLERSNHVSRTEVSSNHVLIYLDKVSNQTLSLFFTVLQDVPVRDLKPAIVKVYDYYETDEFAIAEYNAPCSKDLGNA
UniProt Q9UG63: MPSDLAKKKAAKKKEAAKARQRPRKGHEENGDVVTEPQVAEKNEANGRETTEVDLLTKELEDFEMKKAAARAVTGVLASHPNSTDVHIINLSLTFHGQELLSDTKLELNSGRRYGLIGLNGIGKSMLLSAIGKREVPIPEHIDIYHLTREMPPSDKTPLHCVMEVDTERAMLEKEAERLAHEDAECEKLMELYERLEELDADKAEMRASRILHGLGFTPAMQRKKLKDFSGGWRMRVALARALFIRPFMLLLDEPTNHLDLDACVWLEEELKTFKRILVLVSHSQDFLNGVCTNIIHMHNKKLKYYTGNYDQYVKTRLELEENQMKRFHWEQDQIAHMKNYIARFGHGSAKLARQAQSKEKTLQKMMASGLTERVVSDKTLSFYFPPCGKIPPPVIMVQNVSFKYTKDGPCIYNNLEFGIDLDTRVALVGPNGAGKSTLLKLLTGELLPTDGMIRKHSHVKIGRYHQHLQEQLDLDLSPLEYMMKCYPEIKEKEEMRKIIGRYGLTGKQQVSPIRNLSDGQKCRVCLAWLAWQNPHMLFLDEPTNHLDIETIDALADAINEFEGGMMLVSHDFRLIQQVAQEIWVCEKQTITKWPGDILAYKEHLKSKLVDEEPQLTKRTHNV
UniProt Q7L211: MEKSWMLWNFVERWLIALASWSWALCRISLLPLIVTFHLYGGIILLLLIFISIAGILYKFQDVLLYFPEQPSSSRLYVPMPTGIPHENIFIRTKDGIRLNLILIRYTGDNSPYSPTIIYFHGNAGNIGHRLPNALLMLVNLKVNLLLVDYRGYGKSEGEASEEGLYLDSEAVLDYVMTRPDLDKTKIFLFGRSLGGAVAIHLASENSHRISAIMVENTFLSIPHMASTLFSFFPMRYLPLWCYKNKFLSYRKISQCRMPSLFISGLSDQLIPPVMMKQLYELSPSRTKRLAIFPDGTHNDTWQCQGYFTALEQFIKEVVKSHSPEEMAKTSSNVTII
UniProt Q9NUT2: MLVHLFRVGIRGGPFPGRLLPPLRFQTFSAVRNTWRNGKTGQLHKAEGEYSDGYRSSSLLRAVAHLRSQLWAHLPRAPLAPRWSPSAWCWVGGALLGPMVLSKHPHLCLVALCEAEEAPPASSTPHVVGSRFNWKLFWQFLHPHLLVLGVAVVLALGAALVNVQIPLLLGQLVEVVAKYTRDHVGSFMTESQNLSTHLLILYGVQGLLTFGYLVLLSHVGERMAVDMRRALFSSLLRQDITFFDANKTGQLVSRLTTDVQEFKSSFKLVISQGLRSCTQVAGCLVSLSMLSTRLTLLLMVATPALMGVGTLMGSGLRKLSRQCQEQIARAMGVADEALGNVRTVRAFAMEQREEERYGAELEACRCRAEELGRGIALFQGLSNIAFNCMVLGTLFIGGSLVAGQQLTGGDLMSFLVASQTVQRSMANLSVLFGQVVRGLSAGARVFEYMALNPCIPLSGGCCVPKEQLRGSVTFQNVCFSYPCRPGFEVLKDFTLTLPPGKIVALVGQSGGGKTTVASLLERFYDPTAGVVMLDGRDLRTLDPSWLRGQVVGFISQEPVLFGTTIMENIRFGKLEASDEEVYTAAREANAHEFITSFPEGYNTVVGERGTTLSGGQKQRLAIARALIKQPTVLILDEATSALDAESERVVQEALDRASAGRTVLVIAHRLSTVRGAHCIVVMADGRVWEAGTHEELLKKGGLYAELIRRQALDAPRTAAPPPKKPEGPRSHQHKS
UniProt P21399: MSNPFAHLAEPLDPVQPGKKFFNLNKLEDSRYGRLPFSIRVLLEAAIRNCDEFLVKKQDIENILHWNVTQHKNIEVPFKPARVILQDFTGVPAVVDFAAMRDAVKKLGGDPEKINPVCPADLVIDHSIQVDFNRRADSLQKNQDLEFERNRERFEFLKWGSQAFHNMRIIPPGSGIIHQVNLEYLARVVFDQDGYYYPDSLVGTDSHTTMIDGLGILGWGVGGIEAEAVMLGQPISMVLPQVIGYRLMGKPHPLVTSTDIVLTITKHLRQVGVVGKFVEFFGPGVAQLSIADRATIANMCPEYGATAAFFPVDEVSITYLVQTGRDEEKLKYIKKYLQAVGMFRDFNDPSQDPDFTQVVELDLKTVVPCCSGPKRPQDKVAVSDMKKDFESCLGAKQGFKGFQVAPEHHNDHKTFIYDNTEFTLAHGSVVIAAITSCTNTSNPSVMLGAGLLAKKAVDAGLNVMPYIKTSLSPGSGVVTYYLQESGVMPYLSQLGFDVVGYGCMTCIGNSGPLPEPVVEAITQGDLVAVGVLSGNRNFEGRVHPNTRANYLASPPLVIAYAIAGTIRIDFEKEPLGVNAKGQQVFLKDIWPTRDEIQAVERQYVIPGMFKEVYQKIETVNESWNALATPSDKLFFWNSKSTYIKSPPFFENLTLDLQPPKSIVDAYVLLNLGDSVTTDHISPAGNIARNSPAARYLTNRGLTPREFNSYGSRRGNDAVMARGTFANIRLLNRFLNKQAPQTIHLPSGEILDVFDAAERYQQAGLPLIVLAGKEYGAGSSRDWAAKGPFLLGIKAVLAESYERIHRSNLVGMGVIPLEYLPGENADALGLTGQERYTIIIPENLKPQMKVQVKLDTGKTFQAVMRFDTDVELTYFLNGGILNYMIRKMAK
UniProt Q9H845: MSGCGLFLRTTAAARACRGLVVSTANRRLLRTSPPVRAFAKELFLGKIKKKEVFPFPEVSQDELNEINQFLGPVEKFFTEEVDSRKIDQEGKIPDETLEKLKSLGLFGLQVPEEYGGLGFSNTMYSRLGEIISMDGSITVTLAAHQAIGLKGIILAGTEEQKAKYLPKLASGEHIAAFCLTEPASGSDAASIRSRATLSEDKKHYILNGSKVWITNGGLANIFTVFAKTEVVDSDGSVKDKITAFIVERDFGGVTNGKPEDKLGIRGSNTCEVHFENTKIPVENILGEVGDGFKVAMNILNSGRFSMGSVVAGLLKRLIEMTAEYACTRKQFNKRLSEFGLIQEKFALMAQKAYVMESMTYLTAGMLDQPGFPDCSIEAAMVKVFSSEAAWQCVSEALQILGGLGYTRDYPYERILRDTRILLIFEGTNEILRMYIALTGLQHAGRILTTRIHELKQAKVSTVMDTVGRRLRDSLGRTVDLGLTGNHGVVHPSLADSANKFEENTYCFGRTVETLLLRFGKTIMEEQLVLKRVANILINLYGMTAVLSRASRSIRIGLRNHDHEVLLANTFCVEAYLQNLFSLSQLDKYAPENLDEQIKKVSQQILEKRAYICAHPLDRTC
UniProt P24752: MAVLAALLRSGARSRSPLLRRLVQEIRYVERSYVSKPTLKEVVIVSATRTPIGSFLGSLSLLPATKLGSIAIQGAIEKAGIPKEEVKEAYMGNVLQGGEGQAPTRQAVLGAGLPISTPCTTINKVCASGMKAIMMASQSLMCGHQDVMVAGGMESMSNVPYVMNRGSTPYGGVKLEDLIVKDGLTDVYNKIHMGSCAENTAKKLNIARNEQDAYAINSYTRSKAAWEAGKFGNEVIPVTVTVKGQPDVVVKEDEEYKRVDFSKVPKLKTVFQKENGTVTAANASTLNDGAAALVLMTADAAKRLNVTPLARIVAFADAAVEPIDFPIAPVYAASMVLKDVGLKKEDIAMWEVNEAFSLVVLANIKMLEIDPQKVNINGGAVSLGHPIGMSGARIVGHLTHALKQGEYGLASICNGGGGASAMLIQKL
UniProt Q8NE71: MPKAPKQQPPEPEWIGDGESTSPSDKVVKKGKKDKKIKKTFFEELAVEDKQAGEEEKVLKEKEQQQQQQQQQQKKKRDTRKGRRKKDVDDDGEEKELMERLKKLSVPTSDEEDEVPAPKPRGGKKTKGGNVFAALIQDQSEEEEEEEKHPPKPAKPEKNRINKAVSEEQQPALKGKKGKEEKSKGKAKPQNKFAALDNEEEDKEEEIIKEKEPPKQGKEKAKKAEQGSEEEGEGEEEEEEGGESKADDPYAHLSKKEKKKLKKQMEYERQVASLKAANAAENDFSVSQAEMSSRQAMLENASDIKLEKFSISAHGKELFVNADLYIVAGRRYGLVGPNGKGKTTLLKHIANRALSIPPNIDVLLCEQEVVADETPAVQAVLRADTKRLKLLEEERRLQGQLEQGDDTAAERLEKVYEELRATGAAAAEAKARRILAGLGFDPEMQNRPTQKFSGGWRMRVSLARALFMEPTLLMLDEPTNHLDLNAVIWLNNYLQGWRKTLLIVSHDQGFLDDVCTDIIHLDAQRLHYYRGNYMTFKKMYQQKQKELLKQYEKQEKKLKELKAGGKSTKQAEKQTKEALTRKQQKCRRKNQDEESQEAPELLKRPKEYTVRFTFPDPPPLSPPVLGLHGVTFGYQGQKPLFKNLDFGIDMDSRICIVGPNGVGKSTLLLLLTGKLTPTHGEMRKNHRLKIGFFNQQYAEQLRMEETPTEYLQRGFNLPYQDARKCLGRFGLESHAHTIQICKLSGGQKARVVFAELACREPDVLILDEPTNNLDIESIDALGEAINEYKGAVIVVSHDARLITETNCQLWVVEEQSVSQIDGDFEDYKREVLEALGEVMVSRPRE

What was measured:
[1] = compound: C1=CC=C(C=C1)[C@H](COC2=CC3=C(C=C2)NC(=O)N3)NC(=O)C4=CC=CN(C4=O)CC5=CC(=C(C=C5)F)F; assay: log2 fold change, soluble protein after heating vs DMSO (PISA); higher = thermal stabilisation; K562 lysate, 10 uM; active = over 0.2 and 3.5 SD of the protein, either way, in both replicates (recomputed)
Procedure, shortened: (§1)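 Thermal stability, expressed as log-two fold change relative to solvent controls, is given from duplicates. Crude K562 extract in PBS pH 7.4 with 1 mM MgCl2, at 1 mg/mL protein, was treated with 10 μM compound for 30 min and heated in aliquots for 3 min across 48°C-58°C. After pooling, adjustment to 0.5% NP-40 at 4°C and centrifugation at 21,000xg for 90 min, supernatant protein was measured by TMTpro 16plex LC-MS/MS with channel sums equalised.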

[2] = compound: CC1=C(SC2=C1C(=N[C@H](C3=NN=C(N32)C)CC(=O)N)C4=CC=C(C=C4)Cl)C; assay: as above
Procedure, shortened: as §1

[3] = compound: CC1=C2C(=CC=C1)N=C(N(C2=O)C3=CC=CC=C3C)CN4C=NC5=C(N=CN=C54)N; assay: as above
Procedure, shortened: as §1

[4] = compound: Cc1sc2c(c1C)C(c1ccc(Cl)cc1)=N[C@@H](CC(=O)OC(C)(C)C)c1nnc(C)n1-2; assay: as above
Procedure, shortened: as §1

[5] = compound: c1ccc([C@@H]2C[C@H]2NC2CCNCC2)cc1; assay: as above
Procedure, shortened: as §1

[6] = compound: Cc1sc2c(c1C)C(c1ccc(Cl)cc1)=N[C@@H](CC(=O)OC(C)(C)C)c1nnc(C)n1-2; assay: log2 fold change, soluble protein after heating vs DMSO (PISA); higher = thermal stabilisation; K562 cells, 10 uM, 30 min; active = over 0.2 and 3.5 SD of the protein, either way, in both replicates (recomputed)
Procedure, shortened: (§2)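 K562 cells at 2×10^6 cells/mL were treated with 10 μM compound for 30 min. Aliquots were heated for 3 min across 48°C-58°C, pooled, and extracted in PBS with 0.5% NP-40 at 4°C; soluble protein was the supernatant after 21,000xg for 90 min. Soluble protein was quantified by TMTpro 16plex LC-MS/MS with channel sums equalised, and reported as log2 fold change in thermal stability against DMSO controls, with values from duplicates.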

[7] = compound: C1=CC=C(C=C1)[C@H](COC2=CC3=C(C=C2)NC(=O)N3)NC(=O)C4=CC=CN(C4=O)CC5=CC(=C(C=C5)F)F; assay: as above
Procedure, shortened: as §2

[8] = compound: CC1=C2C(=CC=C1)N=C(N(C2=O)C3=CC=CC=C3C)CN4C=NC5=C(N=CN=C54)N; assay: as above
Procedure, shortened: as §2

[9] = compound: CC1=C(SC2=C1C(=N[C@H](C3=NN=C(N32)C)CC(=O)N)C4=CC=C(C=C4)Cl)C; assay: as above
Procedure, shortened: as §2

[10] = compound: c1ccc([C@@H]2C[C@H]2NC2CCNCC2)cc1; assay: as above
Procedure, shortened: as §2

Measured: log2 fold change

ABHD10 (UniProt Q9NUJ1)
inactive: [1] 0.072 | [2] -0.009 | [3] 0.009 | [4] -0.004 | [5] 0.058

A0A0B4J2A0, A0A0B4J2A0
inactive: [1] 0 | [2] -0.039 | [3] 0.024 | [4] -0.022 | [5] 0.049

ZSCAN26 (UniProt Q16670)
inactive: [6] 0.09

ZNF74 isoform 5 (UniProt Q16587)
inactive: [7] -0.083 | [8] 0.097

ABCF3 (UniProt Q9NUQ8)
inactive: [1] 0.002 | [2] -0.016 | [3] 0.031 | [4] 0.013 | [5] 0.06

ZNF639 (UniProt Q9UID6)
inactive: [8] 0.286 | [6] -0.131

ZZZ3 (UniProt Q8IYH5)
inactive: [6] -0.153

ZSCAN21 (UniProt Q9Y5A6)
inactive: [9] -0.323 | [10] 0.034

A2M (UniProt P01023)
inactive: [1] 0.026 | [2] 0.034 | [3] 0.048 | [4] -0.074 | [5] -0.099

ZNRD2 (UniProt G3V1B8)
inactive: [7] 0.082 | [6] -0.104

ACOT13 (UniProt Q9NPJ3)
inactive: [1] 0.023 | [2] 0.017 | [3] -0.029 | [4] 0.007 | [5] 0.035

ACLY (UniProt P53396)
inactive: [1] 0.011 | [2] 0.03 | [3] 0.004 | [4] 0.03 | [5] 0.023

AAGAB (UniProt Q6PD74)
inactive: [1] 0.001 | [2] 0.019 | [3] -0.067 | [4] 0.004 | [5] -0.05

ZNF618 (UniProt B1ALC2)
inactive: [7] -0.048 | [9] -0.046 | [10] 0.071

ZNF800 (UniProt Q2TB10)
inactive: [9] -0.201 | [6] 0.23 | [10] 0.336

ABCF2 isoform 2 (UniProt Q9UG63)
inactive: [1] -0.022 | [2] -0.011 | [3] 0.04 | [4] -0.019 | [5] 0.055

ABHD13 (UniProt Q7L211)
inactive: [1] 0.043 | [2] -0.127 | [3] 0.153 | [4] -0.171 | [5] -0.246

ZNFX1 (UniProt Q9P2E3)
inactive: [8] 0.134

ZNF644 (UniProt Q9H582)
inactive: [8] -0.047

ZNHIT2 (UniProt Q9UHR6)
inactive: [8] -0.328

ABCE1 (UniProt P61221)
inactive: [1] -0.017 | [2] -0.005 | [3] -0.01 | [4] 0.028 | [5] -0.011

ABCC4 (UniProt O15439)
inactive: [1] -0.07 | [2] -0.009 | [3] 0.025 | [4] -0.035 | [5] -0.008

ABCB8 (UniProt Q9NUT2)
inactive: [1] 0.075 | [2] -0.024 | [3] 0.004 | [4] 0.022 | [5] 0.003

ZNF444 (UniProt Q8N0Y2)
inactive: [9] -0.052 | [8] -0.412 | [10] -0.031

ACAA1 (UniProt P09110)
inactive: [1] -0.004 | [2] 0.007 | [3] -0.005 | [4] 0.046 | [5] -0.003

ZNF580 (UniProt Q9UK33)
inactive: [8] -0.16 | [6] 0.029

ZNF740 (UniProt Q8NDX6)
inactive: [7] 0.172 | [9] 0.004 | [8] 0.004 | [10] 0.075

ACO1 (UniProt P21399)
inactive: [1] -0.003 | [2] -0.006 | [3] 0.015 | [4] 0.012 | [5] 0.027

ABCA4 (UniProt P78363)
inactive: [1] 0.003 | [2] 0.027 | [3] 0.002 | [4] -0.108 | [5] -0.11

ACADM isoform 2 (UniProt P11310)
inactive: [1] -0.071 | [2] -0.035 | [3] 0.043 | [4] 0.017 | [5] 0.013

ABI2 (UniProt Q9NYB9)
inactive: [1] -0.021 | [2] 0.035 | [3] 0.052 | [4] -0.011 | [5] 0.073

Taken from above (2 entries):
ABCA4 (UniProt P78363)
inactive: [1] 0.003 | [2] 0.027 | [3] 0.002 | [4] -0.108 | [5] -0.11

ACADM isoform 2 (UniProt P11310)
inactive: [1] -0.071 | [2] -0.035 | [3] 0.043 | [4] 0.017 | [5] 0.013

Carrying on:

ACAT2 (UniProt Q9BWD1)
inactive: [1] 0.024 | [2] -0.03 | [3] -0.021 | [4] -0.029 | [5] -0.041

AAK1 (UniProt Q2M2I8)
inactive: [1] -0.024 | [2] -0.028 | [3] -0.04 | [4] -0.088 | [5] -0.093

ACBD6 (UniProt Q9BR61)
inactive: [1] 0.014 | [2] 0.019 | [3] -0.009 | [4] -0.045 | [5] -0.022

ABCD3 (UniProt P28288)
inactive: [1] 0.178 | [2] -0.094 | [3] 0.016 | [4] 0.013 | [5] 0.01

ACAD9 (UniProt Q9H845)
inactive: [1] 0.054 | [2] -0.019 | [3] 0.069 | [4] 0.006 | [5] -0.011

ABHD11 (UniProt Q8NFV4)
inactive: [1] 0.072 | [2] -0.031 | [3] 0.028 | [4] -0.021 | [5] -0.098

ACADVL isoform 3 (UniProt P49748)
inactive: [1] 0.002 | [2] 0.016 | [3] 0.033 | [4] 0.021 | [5] -0.004

ACBD3 (UniProt Q9H3P7)
inactive: [1] -0.022 | [2] -0.013 | [3] 0.007 | [4] 0.006 | [5] 0.048

ACACB (UniProt O00763)
inactive: [1] -0.018 | [2] 0.002 | [3] 0.01 | [4] 0.074 | [5] 0.014

ABT1 (UniProt Q9ULW3)
inactive: [1] 0.103 | [2] 0.03 | [3] 0.081 | [4] -0.053 | [5] 0.022

ACAA2 (UniProt P42765)
inactive: [1] 0.04 | [2] 0.019 | [3] -0.012 | [4] -0.021 | [5] 0.028

ABCC1 (UniProt P33527)
inactive: [1] -0.047 | [2] 0.012 | [3] 0.038 | [4] -0.033 | [5] -0.005

ACCS (UniProt Q96QU6)
inactive: [1] -0.043 | [2] 0.059 | [3] 0.171 | [4] -0.06 | [5] -0.089

ACAP2 (UniProt Q15057)
inactive: [1] 0.007 | [2] 0.011 | [3] 0.021 | [4] 0 | [5] 0.026

ACAT1 (UniProt P24752)
inactive: [1] -0.007 | [2] 0.029 | [3] -0.016 | [4] 0.031 | [5] 0.024

ABHD5 (UniProt Q8WTS1)
inactive: [1] -0.041 | [2] -0.09 | [3] -0.044 | [4] 0.083 | [5] 0.056

ABCB6 (UniProt Q9NP58)
inactive: [1] 0.019 | [2] -0.028 | [3] 0.006 | [4] -0.04 | [5] -0.026

ACACA isoform 4 (UniProt Q13085)
inactive: [1] 0.001 | [2] 0.027 | [3] 0.019 | [4] 0.027 | [5] 0.085

ABL1 isoform 2 (UniProt P00519)
inactive: [1] -0.042 | [2] -0.065 | [3] 0.067 | [4] -0.017 | [5] 0.102

AAAS (UniProt Q9NRG9)
inactive: [1] 0.028 | [2] -0.006 | [3] -0.035 | [4] 0.042 | [5] 0.059

ABHD12 isoform 2 (UniProt Q8N2K0)
inactive: [1] 0.008 | [2] 0.042 | [3] 0.003 | [4] 0.031 | [5] 0.042

ABCF1 (UniProt Q8NE71)
inactive: [1] 0.006 | [2] 0.005 | [3] 0.03 | [4] -0.018 | [5] 0.003

AAR2 (UniProt Q9Y312)
inactive: [1] 0.01 | [2] 0.086 | [3] 0.054 | [4] -0.007 | [5] 0.028

ABLIM1 (UniProt O14639)
inactive: [1] 0.03 | [2] 0.047 | [3] 0.084 | [4] -0.049 | [5] -0.052

ACO2 (UniProt Q99798)
inactive: [1] -0.006 | [2] 0.02 | [3] 0.029 | [4] 0.006 | [5] -0.009

ABI1 isoform 9 (UniProt Q8IZP0)
inactive: [1] -0.013 | [2] -0.008 | [3] -0.006 | [4] -0.004 | [5] -0.117

ACADS (UniProt P16219)
inactive: [1] -0.015 | [2] 0.069 | [3] 0.054 | [4] 0.013 | [5] 0.003

A0A494C100, A0A494C100
inactive: [1] -0.08 | [2] 0.061 | [3] 0.013 | [4] 0.076 | [5] 0.233
